Measured values: publication doi:10.1101/2021.08.02.453806
No constants are given. Whether binding was seen depends on the method and setting. In cells and extracts the contact can be indirect. These calls come from enrichment with a bait or labelling near it, and not all partners need be listed. For some assays here: Tags and fused reporters may be left off the sequences shown.

T1: CHK-2::HA (C. elegans) (UniProt Q9U1Y5)
T1 sequence: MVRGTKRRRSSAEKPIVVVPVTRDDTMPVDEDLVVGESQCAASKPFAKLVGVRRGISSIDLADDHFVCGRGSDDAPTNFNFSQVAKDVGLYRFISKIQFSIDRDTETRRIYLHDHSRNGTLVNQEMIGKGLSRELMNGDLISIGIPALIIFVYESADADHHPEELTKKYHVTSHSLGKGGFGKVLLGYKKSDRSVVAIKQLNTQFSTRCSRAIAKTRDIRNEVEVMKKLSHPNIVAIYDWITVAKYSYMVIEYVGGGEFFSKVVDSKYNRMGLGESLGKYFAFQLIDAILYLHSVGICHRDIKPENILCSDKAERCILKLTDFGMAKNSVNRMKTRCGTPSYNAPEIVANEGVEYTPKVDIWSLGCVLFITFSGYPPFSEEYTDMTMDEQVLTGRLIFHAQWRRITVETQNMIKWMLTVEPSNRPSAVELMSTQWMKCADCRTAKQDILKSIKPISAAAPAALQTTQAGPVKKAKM


Assays:
CHK-2::HA (C. elegans) = molecular target: T1, CHK-2::HA (C. elegans); assay: affinity purification with mass spectrometry
HA::PPM-1.D (C. elegans) = HA::PPM-1.D (C. elegans) (UniProt Q95XK4); assay: affinity purification with mass spectrometry

Row | binding (CHK-2::HA (C. elegans)) | binding (HA::PPM-1.D (C. elegans)) | Molecule
1 | binds |  | PPM-1.D (C. elegans (endogenous in C. elegans)) (enzyme)
2 |  | binds | CHK-2 (enzyme, UniProt Q9U1Y5 1-476) MVRGTKRRRSSAEKPIVVVPVTRDDTMPVDEDLVVGESQCAASKPFAKLVGVRRGISSIDLADDHFVCGRGSDDAPTNFNFSQVAKDVGLYRFISKIQFSIDRDTETRRIYLHDHSRNGTLVNQEMIGKGLSRELMNGDLISIGIPALIIFVYESADADHHPEELTKKYHVTSHSLGKGGFGKVLLGYKKSDRSVVAIKQLNTQFSTRCSRAIAKTRDIRNEVEVMKKLSHPNIVAIYDWITVAKYSYMVIEYVGGGEFFSKVVDSKYNRMGLGESLGKYFAFQLIDAILYLHSVGICHRDIKPENILCSDKAERCILKLTDFGMAKNSVNRMKTRCGTPSYNAPEIVANEGVEYTPKVDIWSLGCVLFITFSGYPPFSEEYTDMTMDEQVLTGRLIFHAQWRRITVETQNMIKWMLTVEPSNRPSAVELMSTQWMKCADCRTAKQDILKSIKPISAAAPAALQTTQAGPVKKAKM
